Data as given in PubChem BioAssay AID1224830 (NIAID, 2016).

Purpose: 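Genes whose knock-down alters the TNF-alpha reporter response to LPS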 (primary screen)
Cells: human THP-1 monocytic leukaemia cells, TNF dual-luciferase reporter clone, PMA-differentiated to macrophage-like cells
Reagent: siRNA pool against human genes, 50 nM
Time to read-out: LPS for 4 h, given about 3 days after siRNA transfection
Conditions: bacterial LPS (TLR4 ligand), 10 ng/ml
Read-out: 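TNF firefly reporter luminescence divided by renilla, normalised to the plate median, then turned into a robust z-score for each replicate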
Scale: TNF reporter robust z-score: higher = stronger TNF reporter response to LPS
Rule for the call: 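Each well counts as active if its z-score is over 2.8 or under -1.5; controls are left without a call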
Here is an unselected part of about 18,000 reagents tested. Over the whole deposit, about 2,900 (16%) got an active call. 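Calls are made per well; low scores hint the gene aids the LPS response, high scores that it dampens it.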 Repeated entries: four replicate wells of each siRNA pool.

gene knocked down | TNF reporter robust z-score | Call
ZFHX4 (zinc finger homeobox 4) | -0.54 | inactive
ZFHX4 (zinc finger homeobox 4) | 0.2 | inactive
ZFHX4 (zinc finger homeobox 4) | -1.36 | inactive
ZFHX4 (zinc finger homeobox 4) | 0.41 | inactive
HDAC9 (histone deacetylase 9) | 0.32 | inactive
HDAC9 (histone deacetylase 9) | 0.97 | inactive
HDAC9 (histone deacetylase 9) | -0.01 | inactive
HDAC9 (histone deacetylase 9) | 1.37 | inactive
ZFAND4 (zinc finger AN1-type containing 4) | -0.03 | inactive
ZFAND4 (zinc finger AN1-type containing 4) | -0.16 | inactive
ZFAND4 (zinc finger AN1-type containing 4) | -0.94 | inactive
ZFAND4 (zinc finger AN1-type containing 4) | 0.77 | inactive
NKX6-3 (NK6 homeobox 3) | 6.43 | active
NKX6-3 (NK6 homeobox 3) | 0.99 | inactive
NKX6-3 (NK6 homeobox 3) | 1.82 | inactive
NKX6-3 (NK6 homeobox 3) | -0.28 | inactive
OR5H6 (olfactory receptor family 5 subfamily H member 6) | 0.97 | inactive
OR5H6 (olfactory receptor family 5 subfamily H member 6) | 2.25 | inactive
OR5H6 (olfactory receptor family 5 subfamily H member 6) | 0 | inactive
OR5H6 (olfactory receptor family 5 subfamily H member 6) | 0.51 | inactive
NYNRIN (NYN domain and retroviral integrase containing) | 0 | inactive
NYNRIN (NYN domain and retroviral integrase containing) | 0.09 | inactive
NYNRIN (NYN domain and retroviral integrase containing) | 0.14 | inactive
PLEKHO1 (pleckstrin homology domain containing O1) | -0.92 | inactive
PLEKHO1 (pleckstrin homology domain containing O1) | -0.89 | inactive
PLEKHO1 (pleckstrin homology domain containing O1) | -0.83 | inactive
PLEKHO1 (pleckstrin homology domain containing O1) | -1.27 | inactive
MCF2L2 (MCF.2 cell line derived transforming sequence-like 2) | -0.03 | inactive
MCF2L2 (MCF.2 cell line derived transforming sequence-like 2) | 0.16 | inactive
MCF2L2 (MCF.2 cell line derived transforming sequence-like 2) | -0.27 | inactive
MCF2L2 (MCF.2 cell line derived transforming sequence-like 2) | 0.37 | inactive
GCH1 (GTP cyclohydrolase 1) | 1.27 | inactive
GCH1 (GTP cyclohydrolase 1) | 0.4 | inactive
GCH1 (GTP cyclohydrolase 1) | -0.11 | inactive
GCH1 (GTP cyclohydrolase 1) | 0.44 | inactive
SLK (STE20 like kinase) | -0.22 | inactive
SLK (STE20 like kinase) | 0.05 | inactive
SLK (STE20 like kinase) | -0.03 | inactive
SLK (STE20 like kinase) | 1.07 | inactive
KIAA1958 | 2.02 | inactive
KIAA1958 | 1.62 | inactive
KIAA1958 | 0.58 | inactive
KIAA1958 | 2.22 | inactive
KRT40 (keratin 40) | 0.14 | inactive
KRT40 (keratin 40) | 0.03 | inactive
KRT40 (keratin 40) | 0.32 | inactive
KRT40 (keratin 40) | -1.01 | inactive
MYO6 (myosin VI) | 0.3 | inactive
MYO6 (myosin VI) | 1.11 | inactive
MYO6 (myosin VI) | -1.41 | inactive
MYO6 (myosin VI) | 0.66 | inactive
IL22RA1 (interleukin 22 receptor subunit alpha 1) | 1.89 | inactive
IL22RA1 (interleukin 22 receptor subunit alpha 1) | 0.63 | inactive
IL22RA1 (interleukin 22 receptor subunit alpha 1) | 1.5 | inactive
IL22RA1 (interleukin 22 receptor subunit alpha 1) | 1.31 | inactive
MTCH2 | 0.27 | inactive
MTCH2 | 0.85 | inactive
MTCH2 | -0.22 | inactive
MTCH2 | -0.17 | inactive
TTC7A (tetratricopeptide repeat domain 7A) | -1.31 | inactive
TTC7A (tetratricopeptide repeat domain 7A) | 1.97 | inactive
TTC7A (tetratricopeptide repeat domain 7A) | 1.47 | inactive
TTC7A (tetratricopeptide repeat domain 7A) | 0.85 | inactive
DAZAP2 (DAZ associated protein 2) | 2.77 | inactive
DAZAP2 (DAZ associated protein 2) | 0.61 | inactive
DAZAP2 (DAZ associated protein 2) | -0.65 | inactive
DAZAP2 (DAZ associated protein 2) | -0.22 | inactive
ZNF394 (zinc finger protein 394) | -1.17 | inactive
ZNF394 (zinc finger protein 394) | -1.2 | inactive
ZNF394 (zinc finger protein 394) | -0.54 | inactive
ZNF394 (zinc finger protein 394) | -0.09 | inactive
LCE1B (late cornified envelope 1B) | – | inactive
LCE1B (late cornified envelope 1B) | -0.25 | inactive
LCE1B (late cornified envelope 1B) | -0.5 | inactive
LCE1B (late cornified envelope 1B) | -0.33 | inactive
HTR1A (5-hydroxytryptamine receptor 1A) | -0.97 | inactive
HTR1A (5-hydroxytryptamine receptor 1A) | -1.17 | inactive
HTR1A (5-hydroxytryptamine receptor 1A) | -1.49 | inactive
HTR1A (5-hydroxytryptamine receptor 1A) | -1.03 | inactive
PTK2B (protein tyrosine kinase 2 beta) | -1.43 | inactive
PTK2B (protein tyrosine kinase 2 beta) | -1.18 | inactive
PTK2B (protein tyrosine kinase 2 beta) | -1.61 | active
PTK2B (protein tyrosine kinase 2 beta) | -1.52 | active
KYAT3 (kynurenine aminotransferase 3) | 0.13 | inactive
KYAT3 (kynurenine aminotransferase 3) | 0.81 | inactive
KYAT3 (kynurenine aminotransferase 3) | -0.39 | inactive
KYAT3 (kynurenine aminotransferase 3) | 0.57 | inactive
SLC6A9 | -0.33 | inactive
SLC6A9 | -0.22 | inactive
SLC6A9 | -0.66 | inactive
SLC6A9 | -0.17 | inactive
ZMYND11 (zinc finger MYND-type containing 11) | -1.56 | active
ZMYND11 (zinc finger MYND-type containing 11) | -1.64 | active
ZMYND11 (zinc finger MYND-type containing 11) | -1.71 | active
ZMYND11 (zinc finger MYND-type containing 11) | -1.16 | inactive
DBNDD2 (dysbindin domain containing 2) | 0.57 | inactive
DBNDD2 (dysbindin domain containing 2) | 0.24 | inactive
DBNDD2 (dysbindin domain containing 2) | -0.49 | inactive
DBNDD2 (dysbindin domain containing 2) | 0.63 | inactive
COL5A3 (collagen type V alpha 3 chain) | 1.42 | inactive
COL5A3 (collagen type V alpha 3 chain) | 1.13 | inactive
COL5A3 (collagen type V alpha 3 chain) | 0.46 | inactive
COL5A3 (collagen type V alpha 3 chain) | 1.38 | inactive
IRF2BP2 (interferon regulatory factor 2 binding protein 2) | -1.35 | inactive
IRF2BP2 (interferon regulatory factor 2 binding protein 2) | -0.28 | inactive
IRF2BP2 (interferon regulatory factor 2 binding protein 2) | -1.3 | inactive
IRF2BP2 (interferon regulatory factor 2 binding protein 2) | -0.86 | inactive
DZANK1 (double zinc ribbon and ankyrin repeat domains 1) | -0.93 | inactive
DZANK1 (double zinc ribbon and ankyrin repeat domains 1) | -0.89 | inactive
DZANK1 (double zinc ribbon and ankyrin repeat domains 1) | 0.01 | inactive
DZANK1 (double zinc ribbon and ankyrin repeat domains 1) | -0.17 | inactive
